Our source for the binding values is article PMC4701952.

These are yes or no findings as the source states them, for the method shown. Some binding calls cover weakened binding; strength is not graded here.

This experiment addresses T1, SEP3 full length wild type (A. thaliana), O22456.
T1 chain: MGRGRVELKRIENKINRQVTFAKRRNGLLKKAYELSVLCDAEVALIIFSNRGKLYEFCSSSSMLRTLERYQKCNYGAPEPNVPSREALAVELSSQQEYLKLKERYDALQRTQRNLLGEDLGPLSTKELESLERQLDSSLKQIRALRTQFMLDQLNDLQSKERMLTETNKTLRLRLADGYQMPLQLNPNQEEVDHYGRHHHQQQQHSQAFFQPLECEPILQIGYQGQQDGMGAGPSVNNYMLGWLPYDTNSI
As to the kind of experiment: native gel or EMSA; in vitro translated proteins (4 ul TnT mix, not purified) with 5-10 nM DY-682 labelled 121 bp SOC1 promoter DNA with two CArG boxes; complexes seen on DNA, assigned as putative dimer and tetramer. To be noted: remark: other sources report otherwise. (Mobility shift assays separate free from complexed probe on a gel.)

B1: SEP3 full length wild type, O22456 1-251 (natural protein)
chain: MGRGRVELKRIENKINRQVTFAKRRNGLLKKAYELSVLCDAEVALIIFSNRGKLYEFCSSSSMLRTLERYQKCNYGAPEPNVPSREALAVELSSQQEYLKLKERYDALQRTQRNLLGEDLGPLSTKELESLERQLDSSLKQIRALRTQFMLDQLNDLQSKERMLTETNKTLRLRLADGYQMPLQLNPNQEEVDHYGRHHHQQQQHSQAFFQPLECEPILQIGYQGQQDGMGAGPSVNNYMLGWLPYDTNSI
On to B1, for which the binding result is reported as “binds”.
